From paper PMC10681733
These are yes or no findings as the source states them, for the method shown. Binding seen in cells or lysates may run through a third protein. Here binding means that the protein was enriched with, or labelled near, the bait; the list need not be complete. For some assays here: Tags and fused reporters may be left off the sequences shown.

Sequences of proteins named here, by UniProt entry; tags and fusion partners are left off.
UniProt Q13547: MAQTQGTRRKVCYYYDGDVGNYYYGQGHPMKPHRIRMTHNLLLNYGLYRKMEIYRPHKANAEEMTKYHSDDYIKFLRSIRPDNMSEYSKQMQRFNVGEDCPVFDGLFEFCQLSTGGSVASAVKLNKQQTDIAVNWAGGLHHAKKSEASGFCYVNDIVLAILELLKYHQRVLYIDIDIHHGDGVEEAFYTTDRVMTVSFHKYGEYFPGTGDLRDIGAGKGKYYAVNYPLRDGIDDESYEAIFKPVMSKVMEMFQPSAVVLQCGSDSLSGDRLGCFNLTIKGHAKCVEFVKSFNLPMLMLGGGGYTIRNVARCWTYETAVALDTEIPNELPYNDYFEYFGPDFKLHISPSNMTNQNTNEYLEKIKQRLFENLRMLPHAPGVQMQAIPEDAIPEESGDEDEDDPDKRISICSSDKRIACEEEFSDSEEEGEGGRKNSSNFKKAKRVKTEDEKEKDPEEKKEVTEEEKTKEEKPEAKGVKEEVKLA

T1: V5-tagged version of the endogenous GSE1 protein (human) (UniProt Q14687)
T1 sequence: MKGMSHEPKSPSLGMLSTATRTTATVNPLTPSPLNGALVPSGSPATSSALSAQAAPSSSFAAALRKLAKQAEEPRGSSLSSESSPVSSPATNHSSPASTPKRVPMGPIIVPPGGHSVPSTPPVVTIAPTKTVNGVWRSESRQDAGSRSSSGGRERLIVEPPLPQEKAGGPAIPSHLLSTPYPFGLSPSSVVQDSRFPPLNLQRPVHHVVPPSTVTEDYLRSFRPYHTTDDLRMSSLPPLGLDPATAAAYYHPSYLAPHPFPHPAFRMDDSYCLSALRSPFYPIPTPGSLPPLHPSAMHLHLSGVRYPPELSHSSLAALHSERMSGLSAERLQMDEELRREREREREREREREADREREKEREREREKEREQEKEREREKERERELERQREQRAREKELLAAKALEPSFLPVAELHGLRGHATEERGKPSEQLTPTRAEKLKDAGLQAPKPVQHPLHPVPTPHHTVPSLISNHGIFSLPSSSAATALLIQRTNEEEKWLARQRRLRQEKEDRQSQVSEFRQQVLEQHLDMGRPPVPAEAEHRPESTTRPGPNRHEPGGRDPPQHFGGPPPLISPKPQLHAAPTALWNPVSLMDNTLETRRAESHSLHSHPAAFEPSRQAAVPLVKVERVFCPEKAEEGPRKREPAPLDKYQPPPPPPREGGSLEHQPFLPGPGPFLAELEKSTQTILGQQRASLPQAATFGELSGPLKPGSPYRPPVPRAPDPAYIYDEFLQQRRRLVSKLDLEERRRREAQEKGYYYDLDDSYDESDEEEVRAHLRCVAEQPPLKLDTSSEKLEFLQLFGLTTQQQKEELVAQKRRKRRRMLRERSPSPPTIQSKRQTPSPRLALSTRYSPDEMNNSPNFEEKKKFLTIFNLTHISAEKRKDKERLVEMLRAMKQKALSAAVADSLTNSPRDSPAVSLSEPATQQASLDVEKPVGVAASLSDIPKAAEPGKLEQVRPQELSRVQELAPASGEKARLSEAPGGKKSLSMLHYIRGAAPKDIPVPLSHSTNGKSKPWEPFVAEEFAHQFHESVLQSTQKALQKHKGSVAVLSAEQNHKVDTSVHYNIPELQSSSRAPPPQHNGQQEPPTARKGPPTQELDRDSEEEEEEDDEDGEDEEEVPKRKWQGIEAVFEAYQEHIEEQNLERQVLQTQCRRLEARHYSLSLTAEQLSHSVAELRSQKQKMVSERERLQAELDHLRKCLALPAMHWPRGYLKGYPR


How the values were obtained:
[1] = target: T1, V5-tagged version of the endogenous GSE1 protein (human); assay: affinity purification with mass spectrometry; GSE1-V5 captured on V5-beads from HAP1 whole cell extract (Hunt buffer), untreated and 6 h etoposide treated cells; control HAP1 WT cells; on-bead digest, label-free quantification
[2] = target: C-terminally FLAG-tagged wildtype HDAC1 (UniProt Q13547); assay: affinity purification with mass spectrometry; HDAC1-FLAG captured on crosslinked M2-FLAG beads from HAP1 whole cell extract (Hunt buffer: 20 mM Tris/HCl pH 8.0, 100 mM NaCl, 1 mM EDTA, 0.5% NP-40), overnight 4°C; control HDAC1 KO cells; on-bead digest, label-free quantification

| Binder | binding [1] | binding [2] |
| --- | --- | --- |
| DDX46 (protein, UniProt Q7L014 1-1031) MGRESRHYRKRSASRGRSGSRSRSRSPSDKRSKRGDDRRSRSRDRDRRRERSRSRDKRRSRSRDRKRLRRSRSRERDRSRERRRSRSRDRRRSRSRSRGRRSRSSSPGNKSKKTENRSRSKEKTDGGESSKEKKKDKDDKEDEKEKDAGNFDQNKLEEEMRKRKERVEKWREEQRKKAMENIGELKKEIEEMKQGKKWSLEDDDDDEDDPAEAEKEGNEMEGEELDPLDAYMEEVKEEVKKFNMRSVKGGGGNEKKSGPTVTKVVTVVTTKKAVVDSDKKKGELMENDQDAMEYSSEEEEVDLQTALTGYQTKQRKLLEPVDHGKIEYEPFRKNFYVEVPELAKMSQEEVNVFRLEMEGITVKGKGCPKPIKSWVQCGISMKILNSLKKHGYEKPTPIQTQAIPAIMSGRDLIGIAKTGSGKTIAFLLPMFRHIMDQRSLEEGEGPIAVIMTPTRELALQITKECKKFSKTLGLRVVCVYGGTGISEQIAELKRGAEIIVCTPGRMIDMLAANSGRVTNLRRVTYVVLDEADRMFDMGFEPQVMRIVDNVRPDRQTVMFSATFPRAMEALARRILSKPIEVQVGGRSVVCSDVEQQVIVIEEEKKFLKLLELLGHYQESGSVIIFVDKQEHADGLLKDLMRASYPCMSLHGGIDQYDRDSIINDFKNGTCKLLVATSVAARGLDVKHLILVVNYSCPNHYEDYVHRAGRTGRAGNKGYAYTFITEDQARYAGDIIKALELSGTAVPPDLEKLWSDFKDQQKAEGKIIKKSSGFSGKGFKFDETEQALANERKKLQKAALGLQDSDDEDAAVDIDEQIESMFNSKKRVKDMAAPGTSSVPAPTAGNAEKLEIAKRLALRINAQKNLGIESQDVMQQATNAILRGGTILAPTVSAKTIAEQLAEKINAKLNYVPLEKQEEERQDGGQNESFKRYEEELEINDFPQTARWKVTSKEALQRISEYSEAAITIRGTYFPPGKEPKEGERKIYLAIESANELAVQKAKAEITRLIKEELIRLQNSYQPTNKGRYKVL | binds | – |
| OGT (protein, UniProt O15294 1-1046) MASSVGNVADSTEPTKRMLSFQGLAELAHREYQAGDFEAAERHCMQLWRQEPDNTGVLLLLSSIHFQCRRLDRSAHFSTLAIKQNPLLAEAYSNLGNVYKERGQLQEAIEHYRHALRLKPDFIDGYINLAAALVAAGDMEGAVQAYVSALQYNPDLYCVRSDLGNLLKALGRLEEAKACYLKAIETQPNFAVAWSNLGCVFNAQGEIWLAIHHFEKAVTLDPNFLDAYINLGNVLKEARIFDRAVAAYLRALSLSPNHAVVHGNLACVYYEQGLIDLAIDTYRRAIELQPHFPDAYCNLANALKEKGSVAEAEDCYNTALRLCPTHADSLNNLANIKREQGNIEEAVRLYRKALEVFPEFAAAHSNLASVLQQQGKLQEALMHYKEAIRISPTFADAYSNMGNTLKEMQDVQGALQCYTRAIQINPAFADAHSNLASIHKDSGNIPEAIASYRTALKLKPDFPDAYCNLAHCLQIVCDWTDYDERMKKLVSIVADQLEKNRLPSVHPHHSMLYPLSHGFRKAIAERHGNLCLDKINVLHKPPYEHPKDLKLSDGRLRVGYVSSDFGNHPTSHLMQSIPGMHNPDKFEVFCYALSPDDGTNFRVKVMAEANHFIDLSQIPCNGKAADRIHQDGIHILVNMNGYTKGARNELFALRPAPIQAMWLGYPGTSGALFMDYIITDQETSPAEVAEQYSEKLAYMPHTFFIGDHANMFPHLKKKAVIDFKSNGHIYDNRIVLNGIDLKAFLDSLPDVKIVKMKCPDGGDNADSSNTALNMPVIPMNTIAEAVIEMINRGQIQITINGFSISNGLATTQINNKAATGEEVPRTIIVTTRSQYGLPEDAIVYCNFNQLYKIDPSTLQMWANILKRVPNSVLWLLRFPAVGEPNIQQYAQNMGLPQNRIIFSPVAPKEEHVRRGQLADVCLDTPLCNGHTTGMDVLWAGTPMVTMPGETLASRVAASQLTCLGCLELIAKNRQEYEDIAVKLGTDLEYLKKVRGKVWKQRISSPLFNTKQYTMELERLYLQMWEHYAAGNKPDHMIKPVEVTESA | – | binds |

The remaining lines, values ahead:

| binding [1] | binding [2] | Binder |
| --- | --- | --- |
| binds | – | HMB20B (protein, UniProt Q9P0W2 1-317) MSHGPKQPGAAAAPAGGKAPGQHGGFVVTVKQERGEGPRAGEKGSHEEEPVKKRGWPKGKKRKKILPNGPKAPVTGYVRFLNERREQIRTRHPDLPFPEITKMLGAEWSKLQPTEKQRYLDEAEREKQQYMKELRAYQQSEAYKMCTEKIQEKKIKKEDSSSGLMNTLLNGHKGGDCDGFSTFDVPIFTEEFLDQNKAREAELRRLRKMNVAFEEQNAVLQRHTQSMSSARERLEQELALEERRTLALQQQLQAVRQALTASFASLPVPGTGETPTLGTLDFYMARLHGAIERDPAQHEKLIVRIKEILAQVASEHL |
| – | binds | ZEB2 (protein, UniProt O60315 1-1214) MKQPIMADGPRCKRRKQANPRRKNVVNYDNVVDTGSETDEEDKLHIAEDDGIANPLDQETSPASVPNHESSPHVSQALLPREEEEDEIREGGVEHPWHNNEILQASVDGPEEMKEDYDTMGPEATIQTAINNGTVKNANCTSDFEEYFAKRKLEERDGHAVSIEEYLQRSDTAIIYPEAPEELSRLGTPEANGQEENDLPPGTPDAFAQLLTCPYCDRGYKRLTSLKEHIKYRHEKNEENFSCPLCSYTFAYRTQLERHMVTHKPGTDQHQMLTQGAGNRKFKCTECGKAFKYKHHLKEHLRIHSGEKPYECPNCKKRFSHSGSYSSHISSKKCIGLISVNGRMRNNIKTGSSPNSVSSSPTNSAITQLRNKLENGKPLSMSEQTGLLKIKTEPLDFNDYKVLMATHGFSGTSPFMNGGLGATSPLGVHPSAQSPMQHLGVGMEAPLLGFPTMNSNLSEVQKVLQIVDNTVSRQKMDCKAEEISKLKGYHMKDPCSQPEEQGVTSPNIPPVGLPVVSHNGATKSIIDYTLEKVNEAKACLQSLTTDSRRQISNIKKEKLRTLIDLVTDDKMIENHNISTPFSCQFCKESFPGPIPLHQHERYLCKMNEEIKAVLQPHENIVPNKAGVFVDNKALLLSSVLSEKGMTSPINPYKDHMSVLKAYYAMNMEPNSDELLKISIAVGLPQEFVKEWFEQRKVYQYSNSRSPSLERSSKPLAPNSNPPTKDSLLPRSPVKPMDSITSPSIAELHNSVTNCDPPLRLTKPSHFTNIKPVEKLDHSRSNTPSPLNLSSTSSKNSHSSSYTPNSFSSEELQAEPLDLSLPKQMKEPKSIIATKNKTKASSISLDHNSVSSSSENSDEPLNLTFIKKEFSNSNNLDNKSTNPVFSMNPFSAKPLYTALPPQSAFPPATFMPPVQTSIPGLRPYPGLDQMSFLPHMAYTYPTGAATFADMQQRRKYQRKQGFQGELLDGAQDYMSGLDDMTDSDSCLSRKKIKKTESGMYACDLCDKTFQKSSSLLRHKYEHTGKRPHQCQICKKAFKHKHHLIEHSRLHSGEKPYQCDKCGKRFSHSGSYSQHMNHRYSYCKREAEEREAAEREAREKGHLEPTELLMNRAYLQSITPQGYSDSEERESMPRDGESEKEHEKEGEDGYGKLGRQDGDEEFEEEEEESENKSMDTDPETIRDEEETGDHSMDDSSEDGKMETKSDHEEDNMEDGM |
| – | binds | Genetic suppressor element 1 (GSE1) (protein, UniProt Q14687 1-1217) MKGMSHEPKSPSLGMLSTATRTTATVNPLTPSPLNGALVPSGSPATSSALSAQAAPSSSFAAALRKLAKQAEEPRGSSLSSESSPVSSPATNHSSPASTPKRVPMGPIIVPPGGHSVPSTPPVVTIAPTKTVNGVWRSESRQDAGSRSSSGGRERLIVEPPLPQEKAGGPAIPSHLLSTPYPFGLSPSSVVQDSRFPPLNLQRPVHHVVPPSTVTEDYLRSFRPYHTTDDLRMSSLPPLGLDPATAAAYYHPSYLAPHPFPHPAFRMDDSYCLSALRSPFYPIPTPGSLPPLHPSAMHLHLSGVRYPPELSHSSLAALHSERMSGLSAERLQMDEELRREREREREREREREADREREKEREREREKEREQEKEREREKERERELERQREQRAREKELLAAKALEPSFLPVAELHGLRGHATEERGKPSEQLTPTRAEKLKDAGLQAPKPVQHPLHPVPTPHHTVPSLISNHGIFSLPSSSAATALLIQRTNEEEKWLARQRRLRQEKEDRQSQVSEFRQQVLEQHLDMGRPPVPAEAEHRPESTTRPGPNRHEPGGRDPPQHFGGPPPLISPKPQLHAAPTALWNPVSLMDNTLETRRAESHSLHSHPAAFEPSRQAAVPLVKVERVFCPEKAEEGPRKREPAPLDKYQPPPPPPREGGSLEHQPFLPGPGPFLAELEKSTQTILGQQRASLPQAATFGELSGPLKPGSPYRPPVPRAPDPAYIYDEFLQQRRRLVSKLDLEERRRREAQEKGYYYDLDDSYDESDEEEVRAHLRCVAEQPPLKLDTSSEKLEFLQLFGLTTQQQKEELVAQKRRKRRRMLRERSPSPPTIQSKRQTPSPRLALSTRYSPDEMNNSPNFEEKKKFLTIFNLTHISAEKRKDKERLVEMLRAMKQKALSAAVADSLTNSPRDSPAVSLSEPATQQASLDVEKPVGVAASLSDIPKAAEPGKLEQVRPQELSRVQELAPASGEKARLSEAPGGKKSLSMLHYIRGAAPKDIPVPLSHSTNGKSKPWEPFVAEEFAHQFHESVLQSTQKALQKHKGSVAVLSAEQNHKVDTSVHYNIPELQSSSRAPPPQHNGQQEPPTARKGPPTQELDRDSEEEEEEDDEDGEDEEEVPKRKWQGIEAVFEAYQEHIEEQNLERQVLQTQCRRLEARHYSLSLTAEQLSHSVAELRSQKQKMVSERERLQAELDHLRKCLALPAMHWPRGYLKGYPR |
